# Experimental data from the supplement of paper PMC12819154, “High-throughput peptide-centric local stability assay extends protein–ligand identification to membrane proteins, tissues and bacteria” (Nature Structural & Molecular Biology, 2025).
# By UniProt entry, the sequences of proteins in these tests, tags left out. Where a name states a change or a piece, a line headed by the entry shows the natural chain unless it says otherwise.
# UniProt Q99549: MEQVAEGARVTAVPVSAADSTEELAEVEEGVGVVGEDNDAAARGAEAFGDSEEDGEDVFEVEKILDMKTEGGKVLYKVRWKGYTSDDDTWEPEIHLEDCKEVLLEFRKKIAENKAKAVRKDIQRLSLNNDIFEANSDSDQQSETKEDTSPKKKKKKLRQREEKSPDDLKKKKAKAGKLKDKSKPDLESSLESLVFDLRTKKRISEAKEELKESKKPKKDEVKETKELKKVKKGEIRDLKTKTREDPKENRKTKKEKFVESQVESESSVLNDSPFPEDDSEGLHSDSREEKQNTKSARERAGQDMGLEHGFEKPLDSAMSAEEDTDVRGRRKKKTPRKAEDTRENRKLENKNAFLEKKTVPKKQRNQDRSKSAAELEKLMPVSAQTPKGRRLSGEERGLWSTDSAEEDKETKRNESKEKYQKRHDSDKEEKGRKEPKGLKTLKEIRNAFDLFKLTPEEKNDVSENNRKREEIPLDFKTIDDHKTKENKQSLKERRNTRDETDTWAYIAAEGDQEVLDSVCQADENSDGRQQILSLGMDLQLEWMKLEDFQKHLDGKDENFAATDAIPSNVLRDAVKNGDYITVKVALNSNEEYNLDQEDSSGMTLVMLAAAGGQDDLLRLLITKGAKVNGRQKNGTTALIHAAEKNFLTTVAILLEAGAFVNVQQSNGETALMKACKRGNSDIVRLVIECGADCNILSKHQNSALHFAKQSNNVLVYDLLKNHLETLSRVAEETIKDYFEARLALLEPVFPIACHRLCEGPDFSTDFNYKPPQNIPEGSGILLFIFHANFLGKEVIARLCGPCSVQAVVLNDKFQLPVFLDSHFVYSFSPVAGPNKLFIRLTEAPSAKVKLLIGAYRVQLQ
# UniProt Q9BRR9: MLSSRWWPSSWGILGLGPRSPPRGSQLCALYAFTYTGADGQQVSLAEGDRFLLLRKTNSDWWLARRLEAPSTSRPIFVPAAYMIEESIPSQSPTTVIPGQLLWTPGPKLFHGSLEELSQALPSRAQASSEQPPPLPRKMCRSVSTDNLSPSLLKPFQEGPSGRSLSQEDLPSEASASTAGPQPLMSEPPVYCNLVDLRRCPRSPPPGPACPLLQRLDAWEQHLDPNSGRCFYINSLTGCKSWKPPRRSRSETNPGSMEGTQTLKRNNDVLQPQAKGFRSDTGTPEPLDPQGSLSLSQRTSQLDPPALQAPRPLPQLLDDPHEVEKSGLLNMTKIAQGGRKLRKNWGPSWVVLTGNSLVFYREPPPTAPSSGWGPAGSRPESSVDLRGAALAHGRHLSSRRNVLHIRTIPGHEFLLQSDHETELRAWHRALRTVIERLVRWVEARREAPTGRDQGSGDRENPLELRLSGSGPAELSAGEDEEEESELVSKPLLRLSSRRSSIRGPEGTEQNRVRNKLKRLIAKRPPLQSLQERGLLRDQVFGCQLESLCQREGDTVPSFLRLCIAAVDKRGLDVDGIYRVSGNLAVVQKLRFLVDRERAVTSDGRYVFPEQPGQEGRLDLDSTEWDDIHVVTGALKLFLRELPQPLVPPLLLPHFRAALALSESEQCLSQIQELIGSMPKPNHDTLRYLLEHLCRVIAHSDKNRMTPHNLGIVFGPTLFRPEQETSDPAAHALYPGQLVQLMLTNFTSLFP
# UniProt Q9BSQ5: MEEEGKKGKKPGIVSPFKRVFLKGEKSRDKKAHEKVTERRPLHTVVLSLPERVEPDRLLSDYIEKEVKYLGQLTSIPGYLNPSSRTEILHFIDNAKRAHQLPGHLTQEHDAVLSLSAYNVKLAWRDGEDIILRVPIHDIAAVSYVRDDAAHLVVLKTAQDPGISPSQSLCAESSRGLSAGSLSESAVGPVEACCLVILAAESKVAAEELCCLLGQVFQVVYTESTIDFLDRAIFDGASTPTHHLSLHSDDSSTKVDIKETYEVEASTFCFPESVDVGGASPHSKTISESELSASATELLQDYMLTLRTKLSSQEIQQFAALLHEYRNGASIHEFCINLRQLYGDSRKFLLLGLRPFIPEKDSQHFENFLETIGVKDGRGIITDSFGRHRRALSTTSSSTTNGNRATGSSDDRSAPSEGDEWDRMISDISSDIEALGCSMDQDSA
# UniProt Q9BT30: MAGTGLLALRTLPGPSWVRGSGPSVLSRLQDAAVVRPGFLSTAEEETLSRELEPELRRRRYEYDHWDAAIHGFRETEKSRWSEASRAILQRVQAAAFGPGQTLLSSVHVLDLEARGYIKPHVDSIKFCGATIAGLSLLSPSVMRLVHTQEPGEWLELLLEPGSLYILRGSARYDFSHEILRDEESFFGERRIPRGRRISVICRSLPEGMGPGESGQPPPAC
# UniProt Q99988: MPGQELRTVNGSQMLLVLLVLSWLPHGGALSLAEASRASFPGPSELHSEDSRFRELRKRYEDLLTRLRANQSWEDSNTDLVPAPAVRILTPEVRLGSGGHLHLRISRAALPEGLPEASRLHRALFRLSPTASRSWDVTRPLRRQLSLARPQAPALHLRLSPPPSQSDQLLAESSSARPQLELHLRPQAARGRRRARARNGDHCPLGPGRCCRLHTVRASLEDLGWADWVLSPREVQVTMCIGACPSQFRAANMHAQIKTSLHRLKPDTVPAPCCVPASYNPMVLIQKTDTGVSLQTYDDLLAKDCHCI
# UniProt Q9BSB4: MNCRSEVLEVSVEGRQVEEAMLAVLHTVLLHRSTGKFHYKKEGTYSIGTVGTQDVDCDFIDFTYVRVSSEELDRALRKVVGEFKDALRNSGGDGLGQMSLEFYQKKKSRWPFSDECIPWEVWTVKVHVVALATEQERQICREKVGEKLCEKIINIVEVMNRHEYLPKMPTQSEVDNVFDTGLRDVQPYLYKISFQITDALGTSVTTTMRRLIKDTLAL
# UniProt Q9BVA1, whole entry: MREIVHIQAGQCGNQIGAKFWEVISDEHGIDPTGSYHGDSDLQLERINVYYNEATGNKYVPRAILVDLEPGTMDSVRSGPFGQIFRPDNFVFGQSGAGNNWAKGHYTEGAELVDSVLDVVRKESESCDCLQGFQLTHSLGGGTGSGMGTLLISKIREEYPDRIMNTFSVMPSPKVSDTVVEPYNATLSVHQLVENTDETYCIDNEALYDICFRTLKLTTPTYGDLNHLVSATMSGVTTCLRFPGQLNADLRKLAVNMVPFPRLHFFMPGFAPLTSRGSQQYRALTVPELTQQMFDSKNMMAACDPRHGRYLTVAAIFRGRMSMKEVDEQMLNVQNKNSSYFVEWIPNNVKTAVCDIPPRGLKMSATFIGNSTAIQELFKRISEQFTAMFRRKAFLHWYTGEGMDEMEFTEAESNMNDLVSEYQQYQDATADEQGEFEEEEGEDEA
# UniProt Q99717: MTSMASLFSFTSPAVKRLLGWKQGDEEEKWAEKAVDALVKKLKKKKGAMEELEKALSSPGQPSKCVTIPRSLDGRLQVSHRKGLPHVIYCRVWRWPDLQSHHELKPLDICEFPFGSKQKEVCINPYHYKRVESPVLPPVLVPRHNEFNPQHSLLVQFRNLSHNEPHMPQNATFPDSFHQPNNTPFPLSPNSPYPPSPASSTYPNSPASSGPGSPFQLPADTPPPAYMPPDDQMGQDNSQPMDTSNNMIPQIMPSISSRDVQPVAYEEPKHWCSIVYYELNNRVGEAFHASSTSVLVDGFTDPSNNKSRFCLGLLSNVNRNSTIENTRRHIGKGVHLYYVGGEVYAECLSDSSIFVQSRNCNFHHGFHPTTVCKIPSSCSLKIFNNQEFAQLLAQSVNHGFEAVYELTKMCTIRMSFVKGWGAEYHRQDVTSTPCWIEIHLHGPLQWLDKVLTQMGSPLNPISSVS
# UniProt Q9BVM2: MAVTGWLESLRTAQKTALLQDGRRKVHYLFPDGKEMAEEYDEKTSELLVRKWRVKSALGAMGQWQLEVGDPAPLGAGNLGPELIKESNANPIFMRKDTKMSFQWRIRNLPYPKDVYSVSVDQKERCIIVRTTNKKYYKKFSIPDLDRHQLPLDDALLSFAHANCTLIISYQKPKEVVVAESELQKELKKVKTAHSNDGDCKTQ
# UniProt Q99933: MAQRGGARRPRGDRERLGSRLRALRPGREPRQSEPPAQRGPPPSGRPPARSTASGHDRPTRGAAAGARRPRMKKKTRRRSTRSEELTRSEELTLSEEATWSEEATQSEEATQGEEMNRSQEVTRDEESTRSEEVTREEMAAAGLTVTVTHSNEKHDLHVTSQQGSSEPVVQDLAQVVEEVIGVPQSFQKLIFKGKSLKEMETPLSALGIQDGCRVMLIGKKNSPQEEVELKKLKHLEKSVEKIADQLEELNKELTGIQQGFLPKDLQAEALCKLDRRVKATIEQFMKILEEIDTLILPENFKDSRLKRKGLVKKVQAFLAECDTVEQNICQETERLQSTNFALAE
# UniProt Q9BRQ3: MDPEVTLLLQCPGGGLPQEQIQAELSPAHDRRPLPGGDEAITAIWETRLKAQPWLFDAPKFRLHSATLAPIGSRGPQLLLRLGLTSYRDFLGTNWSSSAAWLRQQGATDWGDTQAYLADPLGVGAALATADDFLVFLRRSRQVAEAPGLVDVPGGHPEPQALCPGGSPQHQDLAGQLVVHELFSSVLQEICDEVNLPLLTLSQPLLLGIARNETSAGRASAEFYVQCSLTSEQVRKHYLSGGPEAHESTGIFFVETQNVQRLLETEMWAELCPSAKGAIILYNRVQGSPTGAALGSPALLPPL
# UniProt Q9BU19: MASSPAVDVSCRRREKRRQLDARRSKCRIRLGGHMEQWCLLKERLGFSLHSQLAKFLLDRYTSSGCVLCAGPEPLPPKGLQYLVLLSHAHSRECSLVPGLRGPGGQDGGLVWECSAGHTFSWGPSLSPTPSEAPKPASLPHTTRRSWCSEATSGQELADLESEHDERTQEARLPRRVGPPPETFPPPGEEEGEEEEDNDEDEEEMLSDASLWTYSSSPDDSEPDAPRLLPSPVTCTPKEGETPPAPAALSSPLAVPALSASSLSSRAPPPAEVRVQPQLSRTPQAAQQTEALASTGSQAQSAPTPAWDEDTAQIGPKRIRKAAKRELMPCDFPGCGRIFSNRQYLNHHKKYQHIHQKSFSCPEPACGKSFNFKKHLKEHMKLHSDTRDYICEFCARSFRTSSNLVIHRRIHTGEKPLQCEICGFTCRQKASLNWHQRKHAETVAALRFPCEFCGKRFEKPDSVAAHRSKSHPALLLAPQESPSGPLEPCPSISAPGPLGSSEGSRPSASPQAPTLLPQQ
# UniProt Q9BTC8: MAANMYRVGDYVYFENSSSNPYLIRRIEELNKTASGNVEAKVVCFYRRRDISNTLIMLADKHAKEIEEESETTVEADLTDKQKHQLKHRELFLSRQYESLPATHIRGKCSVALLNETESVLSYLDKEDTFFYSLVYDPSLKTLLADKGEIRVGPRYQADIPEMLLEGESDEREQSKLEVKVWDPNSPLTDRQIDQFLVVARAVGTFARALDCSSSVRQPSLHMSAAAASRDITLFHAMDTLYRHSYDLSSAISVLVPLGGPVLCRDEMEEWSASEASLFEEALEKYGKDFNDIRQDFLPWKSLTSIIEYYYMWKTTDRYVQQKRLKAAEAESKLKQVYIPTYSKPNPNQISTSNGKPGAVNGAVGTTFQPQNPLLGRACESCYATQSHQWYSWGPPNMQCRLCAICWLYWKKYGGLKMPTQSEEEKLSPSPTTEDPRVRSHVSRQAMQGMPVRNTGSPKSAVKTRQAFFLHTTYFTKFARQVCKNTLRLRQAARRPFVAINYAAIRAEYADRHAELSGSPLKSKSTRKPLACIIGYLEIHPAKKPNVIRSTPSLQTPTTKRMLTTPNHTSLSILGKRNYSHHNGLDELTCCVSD
# UniProt Q9BSF8: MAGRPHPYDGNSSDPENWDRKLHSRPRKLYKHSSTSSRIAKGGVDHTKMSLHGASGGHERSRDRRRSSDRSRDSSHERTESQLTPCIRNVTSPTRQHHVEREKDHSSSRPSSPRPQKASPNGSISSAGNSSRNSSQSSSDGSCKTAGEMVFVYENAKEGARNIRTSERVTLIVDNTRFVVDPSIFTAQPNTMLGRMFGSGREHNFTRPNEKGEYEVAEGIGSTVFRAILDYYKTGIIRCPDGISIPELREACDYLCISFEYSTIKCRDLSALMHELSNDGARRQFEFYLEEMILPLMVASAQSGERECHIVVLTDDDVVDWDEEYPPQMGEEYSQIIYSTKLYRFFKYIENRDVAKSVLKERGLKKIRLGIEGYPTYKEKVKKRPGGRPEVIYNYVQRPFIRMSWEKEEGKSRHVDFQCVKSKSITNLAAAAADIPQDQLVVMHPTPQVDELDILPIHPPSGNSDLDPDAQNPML
# UniProt Q9BT17: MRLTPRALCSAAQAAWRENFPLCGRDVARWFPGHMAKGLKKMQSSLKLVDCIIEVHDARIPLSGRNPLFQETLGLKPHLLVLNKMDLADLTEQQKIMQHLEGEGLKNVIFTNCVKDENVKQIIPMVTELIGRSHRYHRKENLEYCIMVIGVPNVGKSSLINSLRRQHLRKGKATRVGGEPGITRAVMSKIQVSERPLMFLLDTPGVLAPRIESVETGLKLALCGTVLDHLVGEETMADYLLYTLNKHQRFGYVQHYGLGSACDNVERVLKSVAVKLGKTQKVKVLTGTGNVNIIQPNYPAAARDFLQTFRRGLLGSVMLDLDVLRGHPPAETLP
# This is one part of the list. Small differences around the control level are noise.
# Compound: CN[C@@H]1C[C@H]2O[C@@](C)([C@@H]1OC)n1c3ccccc3c3c4c(c5c6ccccc6n2c5c31)C(=O)NC4 [staurosporine]
# Test: log2 fold change of tryptic peptide abundance, ligand vs vehicle (limited proteolysis) (log2 ratio); higher = more trypsin-susceptible (destabilized)
# Conditions: ligand concentration: 20 uM; sample: K562 cleared lysate; digestion: 4 min, 22 C (HT-PELSA RT4min, Orbitrap Astral)
row,Target,log2 fold change
1,"TBCD (peptide sequence: LGLTFLKPK, peptide start residue: 304) (UniProt Q9BTW9)",-0.234
2,"KIFC1 (peptide sequence: EVDALLHLAR, peptide start residue: 512) (UniProt Q9BW19)",0.271
3,"MPHOSPH8 (peptide sequence: EVLLEFR, peptide start residue: 101) (UniProt Q99549)",-0.124
4,"SEPHS2 (peptide sequence: VPQEALLK, peptide start residue: 64) (UniProt Q99611)",0.0455
5,"KIF2C (peptide sequence: AHTPFRESK, peptide start residue: 535) (UniProt Q99661)",0.19
6,"ARHGAP9 (peptide sequence: LCIAAVDKR, peptide start residue: 561) (UniProt Q9BRR9)",0.798
7,"NUDT16L1 (peptide sequence: LTEADYLSSHLTEGPHR, peptide start residue: 91) (UniProt Q9BRJ7)",-1.13
8,"CCM2 (peptide sequence: GIITDSFGR, peptide start residue: 379) (UniProt Q9BSQ5)",-0.119
9,"ALKBH7 (peptide sequence: TLPGPSWVR, peptide start residue: 11) (UniProt Q9BT30)",0.284
10,"GDF15 (peptide sequence: AANMHAQIK, peptide start residue: 250) (UniProt Q99988)",0.524
11,"UniProt Q9BSB4 (peptide sequence: IINIVEVMNR, peptide start residue: 152)",0.275
12,"UniProt Q9BVA1 (peptide sequence: INVYYNEATGNKYVPR, peptide start residue: 47)",-0.299
13,"UniProt Q99909 (peptide sequence: AILPSFMR, peptide start residue: 65)",0.275
14,"SMAD5 (peptide sequence: ALSSPGQPSK, peptide start residue: 55) (UniProt Q99717)",0.0646
15,"DPCD (peptide sequence: EVVVAESELQKELK, peptide start residue: 175) (UniProt Q9BVM2)",0.58
16,"DOK1 (peptide sequence: TWAVLYPASPHGVAR, peptide start residue: 25) (UniProt Q99704)",-0.0936
17,"C7orf50 (peptide sequence: EAGLVAQHPPARR, peptide start residue: 84) (UniProt Q9BRJ6)",0.346
18,"BAG1 (peptide sequence: NSPQEEVELK, peptide start residue: 222) (UniProt Q99933)",0.407
19,"NUDT22 (peptide sequence: LHSATLAPIGSR, peptide start residue: 63) (UniProt Q9BRQ3)",0.197
20,"ZNF692 (peptide sequence: LGGHMEQWCLLK, peptide start residue: 31) (UniProt Q9BU19)",0.289
21,"MACROD1 (peptide sequence: EWLEQHKDKVDR, peptide start residue: 289) (UniProt Q9BQ69)",0.162
22,"MTA3 (peptide sequence: QAFFLHTTYFTK, peptide start residue: 466) (UniProt Q9BTC8)",-0.159
23,"MRPL45 (peptide sequence: WSFVESLEPSHVVQVR, peptide start residue: 183) (UniProt Q9BRJ2)",-0.408
24,"NAP1L4 (peptide sequence: YAALYQPLFDK, peptide start residue: 95) (UniProt Q99733)",0.316
25,"BTBD10 (peptide sequence: HVDFQCVK, peptide start residue: 414) (UniProt Q9BSF8)",0.192
26,"MTG1 (peptide sequence: LVDCIIEVHDAR, peptide start residue: 48) (UniProt Q9BT17)",-0.293

# Random excerpt: 2 entries already listed
row,Target,log2 fold change
23,"MRPL45 (peptide sequence: WSFVESLEPSHVVQVR, peptide start residue: 183) (UniProt Q9BRJ2)",-0.408
20,"ZNF692 (peptide sequence: LGGHMEQWCLLK, peptide start residue: 31) (UniProt Q9BU19)",0.289
